Data published in paper PMC5122325.
Results are given in words; binding and its absence hold for the method and conditions named. Binding seen in cells or lysates may run through a third protein. Some binding calls cover weakened binding; strength is not graded here.

Sequences of proteins named here, by UniProt entry; tags and fusion partners are left off.
UniProt Q8TDD2: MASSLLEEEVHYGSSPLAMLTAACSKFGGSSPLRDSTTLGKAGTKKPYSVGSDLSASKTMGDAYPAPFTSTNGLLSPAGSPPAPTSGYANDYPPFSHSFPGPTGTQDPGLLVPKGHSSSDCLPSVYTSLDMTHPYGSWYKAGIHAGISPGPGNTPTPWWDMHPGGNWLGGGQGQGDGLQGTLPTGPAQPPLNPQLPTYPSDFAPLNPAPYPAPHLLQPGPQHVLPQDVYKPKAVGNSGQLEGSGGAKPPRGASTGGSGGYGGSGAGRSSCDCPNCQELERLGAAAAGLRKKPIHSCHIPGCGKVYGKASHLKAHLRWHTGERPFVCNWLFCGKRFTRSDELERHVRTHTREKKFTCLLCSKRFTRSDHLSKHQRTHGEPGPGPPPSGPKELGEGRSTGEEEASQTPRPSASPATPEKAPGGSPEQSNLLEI
UniProt P45481: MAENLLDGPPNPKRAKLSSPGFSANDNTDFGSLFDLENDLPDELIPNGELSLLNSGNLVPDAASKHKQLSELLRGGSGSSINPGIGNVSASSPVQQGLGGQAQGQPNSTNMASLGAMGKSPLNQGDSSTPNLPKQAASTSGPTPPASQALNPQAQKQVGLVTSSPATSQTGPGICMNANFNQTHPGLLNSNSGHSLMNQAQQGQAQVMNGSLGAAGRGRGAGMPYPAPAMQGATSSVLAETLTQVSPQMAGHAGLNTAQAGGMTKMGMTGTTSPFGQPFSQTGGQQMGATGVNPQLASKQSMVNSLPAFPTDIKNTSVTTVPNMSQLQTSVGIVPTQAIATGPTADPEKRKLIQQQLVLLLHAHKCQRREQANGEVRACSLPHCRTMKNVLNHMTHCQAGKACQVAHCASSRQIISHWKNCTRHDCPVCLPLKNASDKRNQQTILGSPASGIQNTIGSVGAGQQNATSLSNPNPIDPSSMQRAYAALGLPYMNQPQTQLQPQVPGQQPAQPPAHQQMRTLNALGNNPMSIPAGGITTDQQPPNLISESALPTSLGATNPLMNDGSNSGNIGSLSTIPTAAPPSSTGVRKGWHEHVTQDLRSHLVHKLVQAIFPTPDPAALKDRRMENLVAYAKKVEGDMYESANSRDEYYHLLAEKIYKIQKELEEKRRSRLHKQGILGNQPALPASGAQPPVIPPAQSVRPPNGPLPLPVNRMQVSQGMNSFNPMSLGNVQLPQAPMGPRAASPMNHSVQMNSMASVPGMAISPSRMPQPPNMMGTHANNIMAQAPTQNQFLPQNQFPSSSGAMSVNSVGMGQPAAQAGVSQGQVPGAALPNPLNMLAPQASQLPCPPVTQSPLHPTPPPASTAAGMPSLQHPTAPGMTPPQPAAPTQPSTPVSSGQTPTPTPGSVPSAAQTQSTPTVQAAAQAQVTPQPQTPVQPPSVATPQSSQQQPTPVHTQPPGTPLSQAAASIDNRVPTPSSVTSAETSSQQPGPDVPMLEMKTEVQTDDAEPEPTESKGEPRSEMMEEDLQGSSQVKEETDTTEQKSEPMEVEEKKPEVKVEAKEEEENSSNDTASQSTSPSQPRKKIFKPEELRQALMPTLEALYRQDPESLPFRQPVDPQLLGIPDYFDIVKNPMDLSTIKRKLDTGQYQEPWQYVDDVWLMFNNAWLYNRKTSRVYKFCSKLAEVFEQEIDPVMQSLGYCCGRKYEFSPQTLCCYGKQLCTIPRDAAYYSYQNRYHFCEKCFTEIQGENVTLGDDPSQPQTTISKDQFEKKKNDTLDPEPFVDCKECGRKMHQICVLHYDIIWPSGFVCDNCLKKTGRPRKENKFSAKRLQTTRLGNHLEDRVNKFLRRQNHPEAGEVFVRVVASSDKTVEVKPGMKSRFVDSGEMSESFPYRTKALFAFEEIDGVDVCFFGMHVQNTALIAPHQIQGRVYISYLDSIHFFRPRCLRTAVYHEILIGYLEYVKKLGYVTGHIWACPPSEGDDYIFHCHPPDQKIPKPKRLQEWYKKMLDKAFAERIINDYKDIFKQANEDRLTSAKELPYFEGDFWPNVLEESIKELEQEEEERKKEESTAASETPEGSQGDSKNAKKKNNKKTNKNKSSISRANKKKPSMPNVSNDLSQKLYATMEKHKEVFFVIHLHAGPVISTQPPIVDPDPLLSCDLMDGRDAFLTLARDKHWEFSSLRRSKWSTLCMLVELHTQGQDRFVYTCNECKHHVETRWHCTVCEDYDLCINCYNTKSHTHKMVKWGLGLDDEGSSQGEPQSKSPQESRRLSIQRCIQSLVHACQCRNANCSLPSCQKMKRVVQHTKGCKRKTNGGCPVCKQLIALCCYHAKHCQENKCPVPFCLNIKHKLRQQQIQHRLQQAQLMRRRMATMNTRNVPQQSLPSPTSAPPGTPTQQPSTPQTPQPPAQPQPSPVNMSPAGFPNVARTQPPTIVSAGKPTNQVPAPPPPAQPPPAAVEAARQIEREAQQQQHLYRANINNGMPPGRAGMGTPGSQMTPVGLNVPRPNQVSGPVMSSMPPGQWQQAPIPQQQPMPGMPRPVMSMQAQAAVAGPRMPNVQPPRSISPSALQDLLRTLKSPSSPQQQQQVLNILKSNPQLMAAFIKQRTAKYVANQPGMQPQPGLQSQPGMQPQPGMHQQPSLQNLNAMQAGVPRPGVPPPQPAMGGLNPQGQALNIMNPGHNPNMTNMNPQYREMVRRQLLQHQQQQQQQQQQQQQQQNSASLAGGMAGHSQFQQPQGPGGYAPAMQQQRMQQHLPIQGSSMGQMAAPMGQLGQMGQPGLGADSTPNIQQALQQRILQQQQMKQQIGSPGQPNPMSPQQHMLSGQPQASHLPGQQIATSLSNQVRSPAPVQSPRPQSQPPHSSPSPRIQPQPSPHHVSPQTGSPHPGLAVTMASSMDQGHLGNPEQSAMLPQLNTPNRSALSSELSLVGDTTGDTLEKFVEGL
UniProt P56524: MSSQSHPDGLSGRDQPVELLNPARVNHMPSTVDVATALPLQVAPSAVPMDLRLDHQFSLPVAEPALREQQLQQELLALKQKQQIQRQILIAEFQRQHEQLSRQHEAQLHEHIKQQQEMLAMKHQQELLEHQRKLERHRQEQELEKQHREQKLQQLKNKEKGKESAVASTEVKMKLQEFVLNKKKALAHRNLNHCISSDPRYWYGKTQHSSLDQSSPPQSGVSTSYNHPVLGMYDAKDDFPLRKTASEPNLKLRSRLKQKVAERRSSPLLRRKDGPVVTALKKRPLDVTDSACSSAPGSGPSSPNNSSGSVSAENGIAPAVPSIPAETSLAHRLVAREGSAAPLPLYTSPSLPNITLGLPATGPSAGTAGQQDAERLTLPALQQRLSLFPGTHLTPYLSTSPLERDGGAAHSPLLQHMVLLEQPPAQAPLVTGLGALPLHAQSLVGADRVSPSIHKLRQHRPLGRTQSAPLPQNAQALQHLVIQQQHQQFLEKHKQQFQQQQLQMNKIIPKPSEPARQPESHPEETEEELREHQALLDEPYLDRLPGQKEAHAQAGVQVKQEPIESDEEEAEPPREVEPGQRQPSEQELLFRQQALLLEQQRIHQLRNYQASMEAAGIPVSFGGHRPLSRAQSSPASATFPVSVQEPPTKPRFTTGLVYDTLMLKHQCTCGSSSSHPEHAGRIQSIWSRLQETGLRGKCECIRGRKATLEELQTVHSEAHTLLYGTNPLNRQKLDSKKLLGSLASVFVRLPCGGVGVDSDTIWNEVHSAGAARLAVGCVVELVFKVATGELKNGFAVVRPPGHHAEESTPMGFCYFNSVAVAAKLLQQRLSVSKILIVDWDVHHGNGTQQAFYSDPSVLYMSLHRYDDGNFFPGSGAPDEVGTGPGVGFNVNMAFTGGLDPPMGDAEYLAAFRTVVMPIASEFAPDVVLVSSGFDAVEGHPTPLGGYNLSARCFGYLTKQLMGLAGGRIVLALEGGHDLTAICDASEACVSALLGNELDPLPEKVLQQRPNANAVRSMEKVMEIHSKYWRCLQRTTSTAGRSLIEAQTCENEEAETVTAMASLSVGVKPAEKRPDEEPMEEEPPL

Legend:
Assay in all cases: co-IP; HEK 293T cells co-transfected, lysed 48 h later in RIPA buffer (50 mM Tris-HCl pH 7.5, 150 mM NaCl, 1% NP-40, 0.5% sodium deoxycholate, 0.1% SDS); lysates with anti-Flag, anti-Osx or anti-HA antibody at 4°C overnight, protein-G agarose beads, three washes in RIPA; blots with anti-HA or anti-Flag
HA-Osx = HA-Osx (UniProt Q8TDD2)
[1] = target: Flag-CBP-HA (CREB binding protein) (UniProt P45481)
Flag-HDAC4 = Flag-HDAC4 (UniProt P56524)

binding (HA-Osx) | binding [1] | binding (Flag-HDAC4) | Substance
binds | – | – | Flag-CBP-HA (CREB binding protein) (from UniProt P45481 1-2441) (enzyme)
– | binds | binds | HA-Osx-GFP (Osterix fused to GFP) (from UniProt Q8TDD2 1-431)
